Here are results for three molecules from PMC9614494.

No constants are given. Whether binding was seen depends on the method and setting. Binding calls can cover weak binding; strength is not graded here. For some assays here: Where a sequence is shown, tags or fusion partners need not be part of it. For some assays here: Binding seen in cells or lysates may run through a third protein.

Assay [1] concerns the target recombinant GluTR of the cross-linking experiment (Arabidopsis thaliana). In words: cross-linking; recombinant proteins mixed pairwise, 1 mM DSSO in PBS, 1 h, room temperature, trypsin, LC-MS/MS, MaxQuant; both purified.
For assay [2] the target is unchanged. In words: cross-linking; all three recombinant proteins (GluTR, GBP, GSAAT) mixed together, 1 mM DSSO in PBS, 1 h, room temperature, trypsin, LC-MS/MS, MaxQuant; both purified.
The target in assay [3] is recombinant GST-GluTR (Arabidopsis thaliana). In words: pull-down; 50 µg recombinant GST-GluTR as bait with 1% n-DM solubilised plastid lysates (100 µg chlorophyll) of the wild type and of a 35S:GSA1 line, overnight at 4°C, glutathione-Sepharose 4B, eluted with 10 mM reduced glutathione, immunoblot; only the target purified.
The target of assay [4] is recombinant 6xHis-GSAAT (Arabidopsis thaliana). In words: pull-down; 50 µg recombinant His-GSAAT as bait with DM-solubilised wild-type plastid lysate (100 µg chlorophyll) in binding buffer (25 mM Tris-HCl pH 7.8, 150 mM NaCl, 5 mM MgCl2, 10% glycerol), Ni-NTA agarose, 4°C, eluted with imidazole, immunoblot; only the target purified.
Assay [5] addresses recombinant GST-GluTR (Arabidopsis thaliana). In words: pull-down; in vitro GST pull-down: recombinant GST-GluTR with purified 6xHis-GBP and 6xHis-GSAAT together, binding buffer, overnight at 4°C, immunoblot; both purified.

B1: recombinant GBP of the cross-linking experiment (protein, UniProt Q9LU39 43-317)
chain: SVSTTLDTPATASTHKPFPAEVSRSIMELSSVGTLSTLTHDGWPLGVGVRFAVDKDGTPVLCLNRSVSPDKRSALHVQLEQCGLRTPQCTIQGSIGRPGDDTVLKRLSATWREKFGEEVKEDSLYVVAVDRVLQMEDFMEDGIWVASSDYKNASPDPLRDIAEDIVNQINANNMEDIFRFCNVYVDLDFVVSETKMIWMDRLGFDLRVWSPRGVYDVRIPFPMEVTDEKGAKSSFNGMSQLAWEVEKSYCPADFNKVKLLKQVVGSSHSHKGGGQ
For B1, the binding result in assay [1] and in assay [2] was “binds” each time.

B2: GBP of Arabidopsis plastids (protein, UniProt Q9LU39 43-317)
chain: SVSTTLDTPATASTHKPFPAEVSRSIMELSSVGTLSTLTHDGWPLGVGVRFAVDKDGTPVLCLNRSVSPDKRSALHVQLEQCGLRTPQCTIQGSIGRPGDDTVLKRLSATWREKFGEEVKEDSLYVVAVDRVLQMEDFMEDGIWVASSDYKNASPDPLRDIAEDIVNQINANNMEDIFRFCNVYVDLDFVVSETKMIWMDRLGFDLRVWSPRGVYDVRIPFPMEVTDEKGAKSSFNGMSQLAWEVEKSYCPADFNKVKLLKQVVGSSHSHKGGGQ
Take B2: the binding result in assay [3] and in assay [4] was “binds” throughout.

B3: recombinant 6xHis-GBP (protein, UniProt Q9LU39 43-317)
chain: SVSTTLDTPATASTHKPFPAEVSRSIMELSSVGTLSTLTHDGWPLGVGVRFAVDKDGTPVLCLNRSVSPDKRSALHVQLEQCGLRTPQCTIQGSIGRPGDDTVLKRLSATWREKFGEEVKEDSLYVVAVDRVLQMEDFMEDGIWVASSDYKNASPDPLRDIAEDIVNQINANNMEDIFRFCNVYVDLDFVVSETKMIWMDRLGFDLRVWSPRGVYDVRIPFPMEVTDEKGAKSSFNGMSQLAWEVEKSYCPADFNKVKLLKQVVGSSHSHKGGGQ
Turning to B3, in assay [5], the binding result is recorded as “binds”.
